According to paper doi:10.1101/2021.05.20.444955:

Experiments:
Assay in all cases: two-hybrid
[1] = biological target: T1, SPD-5(CL), C4 region aa 927–1060, yeast two-hybrid fusion (C. elegans) (UniProt P91349)
T1 sequence: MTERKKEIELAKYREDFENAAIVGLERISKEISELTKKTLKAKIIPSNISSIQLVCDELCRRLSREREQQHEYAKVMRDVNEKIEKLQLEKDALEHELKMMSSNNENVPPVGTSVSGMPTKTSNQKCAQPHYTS

[2] = biological target: T2, SPD-5(C1), aa 927–1198, yeast two-hybrid fusion (C. elegans) (UniProt P91349)
T2 sequence: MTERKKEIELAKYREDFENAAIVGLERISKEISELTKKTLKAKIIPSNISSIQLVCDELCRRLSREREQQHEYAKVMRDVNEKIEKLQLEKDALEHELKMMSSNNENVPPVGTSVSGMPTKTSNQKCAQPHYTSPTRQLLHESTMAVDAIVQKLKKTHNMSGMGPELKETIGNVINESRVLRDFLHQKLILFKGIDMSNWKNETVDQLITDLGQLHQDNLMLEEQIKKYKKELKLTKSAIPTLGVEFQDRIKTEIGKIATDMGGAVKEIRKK

[3] = biological target: T3, SPD-5(C2), aa 1061–1198, yeast two-hybrid fusion (C. elegans) (UniProt P91349)
T3 sequence: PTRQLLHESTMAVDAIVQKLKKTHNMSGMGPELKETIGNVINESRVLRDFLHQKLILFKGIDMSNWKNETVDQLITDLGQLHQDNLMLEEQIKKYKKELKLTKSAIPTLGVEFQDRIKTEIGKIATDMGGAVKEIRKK

[4] = biological target: T2, SPD-5(C1), aa 927–1198, yeast two-hybrid fusion (C. elegans); remark: listed apart in the source

binding [1] | binding [2] | binding [3] | binding [4] | Substance
binds |  |  |  | PCMD-1 N-terminal half region (aa 1–242), yeast two-hybrid fusion (C. elegans) (domain or fragment)
binds | binds | no binding | binds | PCMD-1, yeast two-hybrid fusion (C. elegans)

Read-outs that look alike come from different tables or passages of the source. No constants are given. Whether binding was seen depends on the method and setting. For some assays here: Binding can be weak; no strength is given. Tags and fused reporters may be left off the sequences shown.
